Assay results published in the supplement of paper PMC8104966.
Values joined by “and” are separate entries in the source; they are usually repeats but may differ in a detail not shown here. Identical values can stand only once. The list shows a part of the results. Single values are uncertain here, since repeats match poorly.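 Fusion between ACE2-bearing and full-length-spike-bearing U2OS cells was measured by imaging as the percentage of nuclei with both cell types' fluorescent markers. An inhibitory hit is a non-toxic compound whose fusion z-score is below -3, more than three standard deviations beneath the plate's DMSO wells.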

tested on: U2OS ACE2 x SARS-CoV-2 spike co-culture; assay: cell-cell fusion (fraction fused) z-score vs plate DMSO control; higher = more fusion; details: 30 µM; 5 h; toxicity class: non-toxic, passed QC

Row | Structure (SMILES) | cell-cell fusion (z-score)
1 | Cc1onc(-c2ccccc2)c1-c1ccc(S(N)(=O)=O)cc1 [Valdecoxib] | inactive: 1.04
2 | C=CC[C@]1(O)CC[C@H]2[C@@H]3CCC4=CC(=O)CCC4=C3C=C[C@@]21C | inactive: 3.81
3 | CCOC(=S)SSC(=S)OCC | inactive: 3.4
4 | c1ccc2c(c1)CC(N1CCN(c3cccc4c3OCCO4)CC1)C2 | inactive: 2.06
5 | C[C@H](NC(=O)/C(C#N)=C/c1cccc(Br)n1)c1ccccc1 | inactive: -1.28
6 | CC(c1cc2ccccc2s1)N(O)C(N)=O (stereo not drawn) | inactive: 2.31
7 | C[C@]12CCC3C(CC[C@]4(O)C[C@@H](O)CC[C@]34C=O)[C@@]1(O)CCC2C1=CC(=O)OC1 (stereo partly drawn) | inactive: 0.625
8 | C[C@H](N[C@@H](CCc1ccccc1)C(=O)O)C(=O)N1Cc2ccccc2C[C@H]1C(=O)O | inactive: 2.32
9 | Cc1cc(NS(=O)(=O)c2ccc(N)cc2)no1 | inactive: 1.98
10 | CC(C(=O)O)c1ccc(C(=O)c2cccs2)cc1 (stereo not drawn) [Suprofen] | inactive: 1.65
11 | COc1cc(C(=O)NCc2ccc(OCCN(C)C)cc2)cc(OC)c1OC.Cl [Trimethobenzamide hydrochloride] | inactive: 1.47
12 | CCOC(=O)C(Cc1ccc(O)cc1)NC(C)=O (stereo not drawn) | inactive: 2.99
13 | C[C@@H]1CCN(C(=O)CC#N)C[C@@H]1N(C)c1ncnc2[nH]ccc12 [Tofacitinib] | inactive: -0.0526
14 | CC1CCc2cc(F)cc3c(=O)c(C(=O)O)cn1c23 (stereo not drawn) | inactive: 0.449
15 | O=C(c1ccc(Br)cc1)N1CC2C3CCC(O3)C2C1 (stereo not drawn) [Pseudocantharidin C] | inactive: 1.97
16 | COc1ccc2c(c1)OC/C(=C\c1ccc(OC)c(O)c1)C2=O | inactive: -0.198
17 | CS(=O)(=O)O.Cc1ccc(N(CC2=NCCN2)c2cccc(O)c2)cc1 [Phentolamine mesilate] | inactive: 2.04
18 | COC(=O)/C=C/C(=O)OC | inactive: 1.65
19 | O=c1[nH]c2cc(Cl)ccc2c(O)c1-c1ccc(Oc2ccccc2)cc1 | inactive: 1.62
20 | O=C(O)/C=C/c1ccccc1 | inactive: 2.47
21 | NCCS(=O)(=O)O [Taurine] | inactive: 1.2
22 | COC(=O)[C@H]1[C@H]2C[C@H]3c4[nH]c5ccccc5c4CCN3C[C@H]2CC[C@@H]1O.Cl [Rauwolscine hydrochloride] | inactive: 1.7
23 | CN1CCCN=C1COC(=O)C(O)(c1ccccc1)C1CCCCC1.Cl (stereo not drawn) | inactive: 3.62
24 | CCn1ccnc1CC1COc2ccccc2O1.Cl (stereo not drawn) [Imiloxan hydrochloride] | inactive: 1.92
25 | Cl.c1ccc(CC2=NCCN2)cc1 [Tolazoline hydrochloride] | inactive: 1.06

Row | Structure (SMILES) | cell-cell fusion (z-score)
26 | COC(=O)C[C@H]1C(C)(C)C(=O)[C@@H]2CC3=C(CC[C@]4(C)C3=CC(=O)O[C@H]4c3ccoc3)[C@@]1(C)C2=O | inactive: 2.93
27 | CCN1CCC[C@H]1CNC(=O)c1c(O)c(Cl)cc(Cl)c1OC.O=C(O)C(O)C(O)C(=O)O [S(+)-Raclopride L-tartrate] | inactive: 2.65
28 | CC(=O)c1c(C)c2cnc(Nc3ccc(N4CCNCC4)cn3)nc2n(C2CCCC2)c1=O.Cl | inactive: -0.293 and inactive: -0.128
29 | N#Cc1ccc(NC(=O)Nc2ccccc2Br)c2[nH]nnc12 | inactive: 0.269
30 | Cc1ccc(O)c([C@H](CCN(C(C)C)C(C)C)c2ccccc2)c1.O=C(O)[C@H](O)[C@@H](O)C(=O)O [Tolterodine tartrate] | inactive: 1.35
31 | Cl.NC(CO)C(=O)NNCc1ccc(O)c(O)c1O (stereo not drawn) [Benserazide hydrochloride] | inactive: 0.855
32 | O=C(O)c1cc2cc(F)ccc2[nH]1 | inactive: 2.82
33 | O=C1CC2OCC=C3CN4CC[C@]56c7ccccc7N1C5[C@H]2[C@H]3CC46.O=S(=O)(O)O (stereo partly drawn) | inactive: 2.72
34 | CC1=C(CCC(O)=O)/C2=C/C3=N/C(=C\C4=C(C)C(C=C)=C(N4)/C=C4\N=C(\C=C\1/N\2)C(C=C)=C4C)/C(C)=C3CCC(O)=O [Protoporphyrin IX disodium] | inactive: 1.26
35 | CC(C[N+](C)(C)C)OC(N)=O.[Cl-] (stereo not drawn) [Bethanechol chloride] | inactive: 0.971
36 | CCCOC(=O)c1c(-c2ccccc2)nc(CC)c(C(=O)SCC)c1CCC | inactive: 3.03
37 | Nc1nc(-n2cc(C(=O)O)c(=O)c3cc(F)c(N4CC(O)C4)c(Cl)c32)c(F)cc1F [Delafloxacin] | inactive: 0.366
38 | CC(=O)O[C@H]1CC[C@@]2(C)C(=CCC3C2CC[C@]2(C)C(=O)CCC32)C1 (stereo partly drawn) | inactive: 2.79
39 | O=C1CN(/N=C/c2ccc(-c3ccc([N+](=O)[O-])cc3)o2)C(=O)[N-]1.[Na+] [Dantrolene sodium] | inactive: 0.85
40 | CC(C(=O)O)c1ccc(-c2ccccc2)c(F)c1 (stereo not drawn) [Flurbiprofen] | inactive: 3.57
41 | O=C1N=C([O-])NC1(c1ccccc1)c1ccccc1.[Na+] [Phenytoin sodium] | inactive: 2.04
42 | CC(=O)O[C@]1(C(C)=O)CC[C@H]2[C@@H]3CCC4=CC(=O)CCC4=C3[C@@H](c3ccc(N(C)C)cc3)C[C@@]21C [Ulipristal acetate] | inactive: -1.32
43 | CC(C(=O)O)c1ccc2c(c1)[nH]c1ccc(Cl)cc12 (stereo not drawn) [Carprofen] | inactive: 1.53
44 | COC1CC2CCC(C)C(O)(O2)C(=O)C(=O)N2CCCCC2C(=O)OC(C(C)CC2CCC(O)C(OC)C2)CC(=O)C(C)/C=C(\C)C(O)C(OC)C(=O)C(C)CC(C)/C=C/C=C/C=C/1C (stereo not drawn) | inactive: 4.27
45 | O=C(O)/C=C(\CC(=O)O)C(=O)O | inactive: 2.39
46 | C[C@]12CCC3[C@@H](CC[C@@]45O[C@@H]4C(O)=C(C#N)C[C@]35C)C1CC[C@@H]2O (stereo partly drawn) | inactive: 2.12
47 | C[C@]1(Cn2ccnn2)[C@H](C(=O)O)N2C(=O)C[C@H]2S1(=O)=O [Tazobactam acid] | inactive: 2.16
48 | C#CCN[C@@H]1CCc2ccccc21 | inactive: 3.56
49 | N#Cc1ccc([C@H]2CCCC[C@H]2O)cc1C(F)(F)F | inactive: 3.01
50 | COC(C)(C)CCC[C@H](C)C/C=C/C(C)=C/C(=O)OC(C)C | inactive: -0.635

Row | Structure (SMILES) | cell-cell fusion (z-score)
51 | C1CCc2nnnn2CC1 [Pentylenetetrazole] | inactive: 2.31
52 | C1CCc2nnnn2CC1 | inactive: 2.6
53 | CC(C)C(=O)c1c(C(C)C)nn2ccccc12 [Ibudilast] | inactive: 0.682
54 | Cc1nc(/N=N/c2ccc(S(=O)(=O)[O-])cc2S(=O)(=O)[O-])c(COP(=O)([O-])[O-])c(C=O)c1O.[Na+].[Na+].[Na+].[Na+] | inactive: -2.38
55 | CC(=O)O[C@]1(C(C)=O)CC[C@H]2[C@@H]3C=C(C)C4=CC(=O)CC[C@]4(C)[C@H]3CC[C@@]21C [Megestrol acetate] | inactive: 1.85
56 | CCN(CC)C(=O)N1CCN(C)CC1.O=C(O)CC(O)(CC(=O)O)C(=O)O | inactive: 0.286
57 | CC(=O)Oc1ccc(C(c2ccc(OC(C)=O)cc2)c2ccccn2)cc1 [Bisacodyl] | inactive: 2.31
58 | COC(=O)[C@H](c1ccccc1Cl)N1CCc2sccc2C1.O=S(=O)(O)O [(S)-(+)-Clopidogrel hydrogen sulfate] | inactive: 2.06
59 | N[C@@H](Cc1ccc(O)c(I)c1)C(=O)O [3-Iodo-L-tyrosine] | inactive: 1.76
60 | C[N+]1(C)CCOC(O)(c2ccc(-c3ccc(C4(O)C[N+](C)(C)CCO4)cc3)cc2)C1.[Br-].[Br-] (stereo not drawn) [Hemicholinium-3] | inactive: 0.366
61 | O=C(Nc1ccc([N+](=O)[O-])cc1Cl)c1cc(Cl)ccc1O | inactive: 0.852
62 | C.O=C([O-])[C@H](CC(=O)N1C[C@H]2CCCC[C@H]2C1)Cc1ccccc1 [Mitiglinide calcium] | inactive: 2.15
63 | CCC(C)C1NC(=O)C(CCN)NC(=O)C(NC(=O)C(CCN)NC(=O)C(NC(=O)C(CCN)NC(=O)CCCCC(C)C)C(C)O)CCNC(=O)C(C(C)O)NC(=O)C(CCN)NC(=O)C(CCN)NC(=O)C(C(C)CC)NC1=O.O=S(=O)(O)O.O=S(=O)(O)O (stereo not drawn) | inactive: 2.77
64 | Nc1nnc[nH]1 | inactive: 1.75
65 | COc1cccc(-c2cc(=O)c3ccccc3o2)c1N | inactive: 2.86
66 | CNC[C@H](O)c1ccc(O)c(O)c1.O=C(O)[C@H](O)[C@@H](O)C(=O)O [Epinephrine bitartrate] | inactive: -0.975
67 | Nc1ccc(C(=O)[O-])c(O)c1.[Na+] | inactive: 0.715
68 | C[C@H]1C[C@H]2[C@@H]3CCC4=CC(=O)C=C[C@]4(C)[C@@]3(F)[C@@H](O)C[C@]2(C)[C@@]1(O)C(=O)CO [Betamethasone] | inactive: 2.94
69 | CC/C(=C(\c1ccccc1)c1ccc(OCCN(C)C)cc1)c1ccccc1 [Tamoxifen] | inactive: 3.74
70 | C[C@H](C(=O)O)c1cccc(C(=O)c2ccccc2)c1 [(S)-(+)-Ketoprofen] | inactive: -0.156
71 | CC(=O)/C(C)=N/O [2,3-Butanedione monoxime] | inactive: 0.914
72 | CCN(CC)CC(=O)Nc1c(C)cccc1C [Xylocaine] | inactive: 2.09
73 | Cl.NNc1nncc2ccccc12 [Hydralazine hydrochloride] | inactive: 2.12
